Data as given in patent publication US20110217715A1, “GENE EXPRESSION IN DUCHENNE MUSCULAR DYSTROPHY” (CHILDREN'S HOSPITAL MEDICAL CENTER, priority 2008, published 2011).
This continues a long series; more values of the same kind are listed elsewhere.

System: mRNA expression in peripheral blood of individuals with DMD
Experiment: Whole-blood gene expression microarray: DMD administered deflazacort vs DMD administered prednisone
Assay type: in vivo, human
Description: Fifteen ml of blood was collected from each individual into 6 PAXgene® Vacutainer® tubes (PreAnalytiX, Germany) by antecubital fossa venipuncture. PAXgene® tubes contain a proprietary reagent that immediately stabilizes RNA, thus reducing RNA degradation and minimizing gene expression changes following phlebotomy. The tubes were then inverted 20 times, then remained undisturbed for 2 h at room temperature (about 19° C. to about 22° C.), and then stored at -70° C. until processed. Total RNA was isolated using the Paxgene® blood RNA kit (PreAnalytiX, Germany) according to the manufacturers instructions. The RNA isolated is from all cells in whole blood. Typical yields of total RNA isolated from about 7.5 ml of human whole blood were between 10 μg RNA and 40 μg RNA. RNA quality and purity was analyzed by spectrophotometry using the Nanodrop ND-1000, and RNA integrity was analyzed using the Agilent 2100 Bioanalyzer. […] Sample labeling, hybridization to chips, and image scanning were performed using standard Affymetrix protocols. For each whole blood sample from control individuals and individuals with DMD, total RNA was labeled using the One-Cycle Target Labeling protocol and hybridized to the arrays. […] Double-stranded cDNA synthesis, biotin-labeled cRNA synthesis, and cRNA fragmentation were performed according to the Affymetrix GeneChip Eukaryotic Expression Analysis protocol. The labeled, fragmented cRNA (15 μg) was hybridized at 45° C. overnight. After hybridization, the array was washed and stained. The arrays were scanned with an argon-ion laser at λ=570 nm, with a resolution of 3 μm/pixel (Affymetrix, Inc.). After scanning the array, the raw probe level values for each probe were saved in Affymetrix.cel files. […] Statistical analyses, including t-test analyses, unsupervised hierarchical clustering, and principal component analyses were conducted using Genespring 7.2 software ([…]® 7, Silicon Genetics, Redwood City Calif.). […] Corrections for multiple comparisons used a Benjamini-Hochberg False Discovery Rate (FDR) of 0.05, disclosed in Tang et al., J Cereb Blood Flow Metab 26 (2006) 1089, which is expressly incorporated by reference herein in its entirety. […] Sample processing and array hybridization, probe-level data analysis, and statistical analysis were identical to Example 1.

CC(=O)OCC(=O)[C@@]12N=C(C)O[C@@H]1C[C@H]1[C@@H]3CCC4=CC(=O)C=C[C@]4(C)[C@H]3[C@@H](O)C[C@@]12C [deflazacort]
p-value (gene HBLD2, Genbank NM_030940, Nucleic Acid No. 2314): 0.0311
p-value (gene KLF9, Genbank NM_001206, Nucleic Acid No. 2315): 0.0319
p-value (gene LOC51326, Genbank AF119889, Nucleic Acid No. 2316): 0.0429
p-value (gene MLC1SA, Genbank NM_002475, Nucleic Acid No. 2317): 0.0202
p-value (gene MTP18, Genbank AF060924, Nucleic Acid No. 2318): 0.0129
p-value (gene NUDT4, NUDT4P1, Genbank AF191653, Nucleic Acid No. 1738): 0.0352
p-value (gene OSBP2, Genbank BE501253, Nucleic Acid No. 2319): 0.0334
p-value (gene RAB2B, Genbank AA531016, Nucleic Acid No. 2320): 0.0428
p-value (gene RARA, Genbank U41742, Nucleic Acid No. 2321): 0.0198
p-value (gene SIGLEC7, Genbank NM_016543, Nucleic Acid No. 2210): 0.0193
p-value (gene SIGLEC9, Genbank AF247180, Nucleic Acid No. 2211): 0.0364
p-value (gene SIRPB1, Genbank NM_006065, Nucleic Acid No. 2212): 0.0432
p-value (gene SLC7A7, Genbank NM_003982, Nucleic Acid No. 2214): 0.0242
p-value (gene SLC25A36, Genbank AL136803, Nucleic Acid No. 56): 0.0384
p-value (gene SLC33A1, Genbank BC029450, Nucleic Acid No. 2213): 0.0407
p-value (gene SLIC1, Genbank AI081246, Nucleic Acid No. 2215): 0.0159
p-value (gene SMARCA4, Genbank D26156, Nucleic Acid No. 2216): 0.0291
p-value (gene SMC5L1, Genbank BC035661, Nucleic Acid No. 2217): 0.0179
p-value (gene SND1, Genbank AI374686, Nucleic Acid No. 2218): 0.0162
p-value (gene SNX1, Genbank AK098001, Nucleic Acid No. 2219): 0.0426
p-value (gene SOD2, Genbank W46388, Nucleic Acid No. 2220): 0.0239
p-value (gene SP2, Genbank D28588, Nucleic Acid No. 2222): 0.0386
p-value (gene SP3, Genbank N23846, Nucleic Acid No. 2223): 0.0499
p-value (gene SP110, Genbank AF280094, Nucleic Acid No. 2221): 0.0401
p-value (gene SPAG9, Genbank BC007524, Nucleic Acid No. 2224): 0.0493
p-value (gene ST8SIA4, Genbank AA352113, Nucleic Acid No. 1171): 0.0441
p-value (gene STAT3, Genbank AA634272, Nucleic Acid No. 2226): 0.0328
p-value (gene STAT3, Genbank AI139252, Nucleic Acid No. 2227): 0.0405
p-value (gene STAT3, Genbank BC000627, Nucleic Acid No. 2225): 0.025
p-value (gene STEAP4, Genbank AA650281, Nucleic Acid No. 2228): 0.0195
p-value (gene SULT1A1, Genbank NM_001055, Nucleic Acid No. 2229): 0.0233
p-value (gene SULT1A3, SULT1A4, Genbank U08032, Nucleic Acid No. 2230): 0.0234
p-value (gene SVIL, Genbank BC022883, Nucleic Acid No. 2231): 0.0273
p-value (gene SYK, Genbank AW467357, Nucleic Acid No. 2232): 0.0336
p-value (gene TAL1, Genbank AW300901, Nucleic Acid No. 2322): 0.0248
p-value (gene TAX1BP3, Genbank AF234997, Nucleic Acid No. 2233): 0.027
p-value (gene TBC1D22A, Genbank AI597838, Nucleic Acid No. 2234): 0.0353
p-value (gene TGFB1, Genbank BC000125, Nucleic Acid No. 2235): 0.0114
p-value (gene TGFBR3, Genbank NM_003243, Nucleic Acid No. 2236): 0.0469
p-value (gene TGOLN2, Genbank NM_006464, Nucleic Acid No. 1425): 0.00127
p-value (gene THRAP2, Genbank AK025348, Nucleic Acid No. 2237): 0.04
p-value (gene TIAF1, MYO18A, Genbank NM_004740, Nucleic Acid No. 2238): 0.0229
p-value (gene TJP2, Genbank NM_004817, Nucleic Acid No. 675): 0.0455
p-value (gene TLE3, Genbank AI567426, Nucleic Acid No. 2239): 0.0127
p-value (gene TLE3, Genbank NM_005078, Nucleic Acid No. 2240): 0.0216
p-value (gene TLR1, Genbank AL050262, Nucleic Acid No. 2241): 0.0328
p-value (gene TMCC1, Genbank AB018322, Nucleic Acid No. 1003): 0.0328
p-value (gene TMCC1, Genbank AI934469, Nucleic Acid No. 2242): 0.0345
p-value (gene TMEM16F, Genbank AL041280, Nucleic Acid No. 2243): 0.0268
p-value (gene TMPRSS6, Genbank AL022314, Nucleic Acid No. 2323): 0.0304
p-value (gene TNFSF10, Genbank NM_003810, Nucleic Acid No. 2244): 0.0148
p-value (gene TNFSF10, Genbank U57059, Nucleic Acid No. 2245): 0.0367
p-value (gene TNFSF13, TNFSF12-TNFSF13, Genbank AF114011, Nucleic Acid No. 2247): 0.0208
p-value (gene TNFSF13, TNFSF12-TNFSF13, Genbank AF114013, Nucleic Acid No. 2246): 0.012
p-value (gene TNFSF13B, Genbank AF134715, Nucleic Acid No. 2248): 0.0196
p-value (gene TNRC5, Genbank AF161347, Nucleic Acid No. 2249): 0.00226
p-value (gene TPARL, Genbank AW665624, Nucleic Acid No. 939): 0.0263
p-value (gene TPP1, Genbank BG231932, Nucleic Acid No. 2250): 0.00621
p-value (gene TPP1, Genbank NM_000391, Nucleic Acid No. 920): 0.000155
p-value (gene TRIM8, Genbank NM_030912, Nucleic Acid No. 2252): 0.00322
p-value (gene TRIM38, Genbank AI809831, Nucleic Acid No. 2251): 0.018
p-value (gene UBE2D3, Genbank AI239832, Nucleic Acid No. 2253): 0.0322
p-value (gene UBE2J1, Genbank N64079, Nucleic Acid No. 2254): 0.0247
p-value (gene UBE3B, Genbank AK022019, Nucleic Acid No. 2255): 0.0134
p-value (gene USP15, Genbank AU156202, Nucleic Acid No. 2256): 0.0357
p-value (gene VCL, Genbank NM_014000, Nucleic Acid No. 2257): 0.000443
p-value (gene VPS37C, Genbank BM452172, Nucleic Acid No. 2258): 0.00954
p-value (gene VPS41, Genbank AF135593, Nucleic Acid No. 342): 0.0126
p-value (gene WARS, Genbank NM_004184, Nucleic Acid No. 2259): 0.0139
p-value (gene WASL, Genbank AK025323, Nucleic Acid No. 2260): 0.0268
p-value (gene WDR40A, Genbank AL555107, Nucleic Acid No. 2324): 0.0469
p-value (gene WIRE, Genbank AK026913, Nucleic Acid No. 2261): 0.00508
p-value (gene WNK1, Genbank AL049278, Nucleic Acid No. 2262): 0.0169
p-value (gene XPO1, Genbank BC041658, Nucleic Acid No. 2263): 0.0377
p-value (gene YOD1, Genbank AF090896, Nucleic Acid No. 2325): 0.0189
p-value (gene YWHAH, Genbank NM_003405, Nucleic Acid No. 1807): 0.018
p-value (gene ZAK, Genbank AW069181, Nucleic Acid No. 2264): 0.00126
p-value (gene ZCCHC2, Genbank AU147903, Nucleic Acid No. 2266): 0.0424
p-value (gene ZCCHC2, Genbank BE676543, Nucleic Acid No. 2265): 0.0109
p-value (gene ZCCHC2, Genbank NM_017742, Nucleic Acid No. 677): 0.022
p-value (gene ZCCHC6, Genbank AA584428, Nucleic Acid No. 2267): 0.0477
p-value (gene ZFHX1B, Genbank AF086037, Nucleic Acid No. 2268): 0.0124
p-value (gene ZFHX1B, Genbank AI623184, Nucleic Acid No. 2269): 0.0233
p-value (gene ZFP36L1, Genbank BE620915, Nucleic Acid No. 2270): 0.0409
p-value (gene ZNF160, Genbank AA701249, Nucleic Acid No. 1369): 0.028
p-value (gene ZNF264, Genbank NM_003417, Nucleic Acid No. 2271): 0.00262
p-value (gene ZNF595, Genbank AI580142, Nucleic Acid No. 2326): 0.00776
p-value (gene ZNF626, Genbank NM_145297, Nucleic Acid No. 2327): 0.0179
p-value (gene ZNF652, Genbank NM_014897, Nucleic Acid No. 2272): 0.0417
p-value (gene ZYG11B, Genbank AV701229, Nucleic Acid No. 2273): 0.00211
p-value (gene ZYG11B, Genbank N21008, Nucleic Acid No. 2274): 0.0262
p-value (gene ZYX, Genbank BC002323, Nucleic Acid No. 2275): 0.0212
p-value (pp9099, NM_025201, nucleic acid 2169, vs. prednisone): 0.0311
